Values from PubChem BioAssay AID1224830 (NIAID, 2016)

Purpose: 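Host factors that control LPS-induced TNF expression in human macrophages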 (primary screen)
Cells: human THP-1 monocytic leukaemia cells, TNF dual-luciferase reporter clone, PMA-differentiated to macrophage-like cells
Reagent: siRNA pool against human genes, 50 nM
Timing: LPS for 4 h, given about 3 days after siRNA transfection
Treatment: bacterial LPS (TLR4 ligand), 10 ng/ml
Read-out: 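Ratio of firefly to renilla light, scaled to the plate median and expressed as a robust z-score per replicate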
Reading the numbers: TNF reporter robust z-score: higher = stronger TNF reporter response to LPS
Rule for the call: 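Each well counts as active if its z-score is over 2.8 or under -1.5; controls are left without a call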
Shown is one part, drawn at random, of about 18,000 reagents tested. About 2,900 of all reagents (16%) were called active. 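Calls are made per well; low scores hint the gene aids the LPS response, high scores that it dampens it.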 Repeated entries: four replicate wells of each siRNA pool.

| target gene | PubChem SID | TNF reporter robust z-score | call |
| --- | --- | --- | --- |
| WRN (WRN RecQ like helicase) | SID315452155 | -0.91 | inactive |
| WRN (WRN RecQ like helicase) | SID315452155 | -0.44 | inactive |
| WRN (WRN RecQ like helicase) | SID315452155 | -0.76 | inactive |
| WRN (WRN RecQ like helicase) | SID315452155 | -0.48 | inactive |
| METTL16 (methyltransferase 16, RNA N6-adenosine) | SID315459188 | -0.34 | inactive |
| METTL16 (methyltransferase 16, RNA N6-adenosine) | SID315459188 | 0.06 | inactive |
| METTL16 (methyltransferase 16, RNA N6-adenosine) | SID315459188 | -0.21 | inactive |
| METTL16 (methyltransferase 16, RNA N6-adenosine) | SID315459188 | -0.12 | inactive |
| GPR19 (G protein-coupled receptor 19) | SID315448998 | -1.35 | inactive |
| GPR19 (G protein-coupled receptor 19) | SID315448998 | -1.17 | inactive |
| GPR19 (G protein-coupled receptor 19) | SID315448998 | -0.47 | inactive |
| GPR19 (G protein-coupled receptor 19) | SID315448998 | -1.24 | inactive |
| PAPPA (pappalysin 1) | SID315450423 | 0.76 | inactive |
| PAPPA (pappalysin 1) | SID315450423 | 0.44 | inactive |
| PAPPA (pappalysin 1) | SID315450423 | -0.31 | inactive |
| PAPPA (pappalysin 1) | SID315450423 | 3.42 | active |
| EEF1AKMT3 (EEF1A lysine methyltransferase 3) | SID315455536 | -1.4 | inactive |
| EEF1AKMT3 (EEF1A lysine methyltransferase 3) | SID315455536 | -0.59 | inactive |
| EEF1AKMT3 (EEF1A lysine methyltransferase 3) | SID315455536 | -1.24 | inactive |
| EEF1AKMT3 (EEF1A lysine methyltransferase 3) | SID315455536 | -0.66 | inactive |
| EPS15 (epidermal growth factor receptor pathway substrate 15) | SID315448545 | -0.11 | inactive |
| EPS15 (epidermal growth factor receptor pathway substrate 15) | SID315448545 | -0.41 | inactive |
| EPS15 (epidermal growth factor receptor pathway substrate 15) | SID315448545 | 0.23 | inactive |
| EPS15 (epidermal growth factor receptor pathway substrate 15) | SID315448545 | 0.14 | inactive |
| RIPPLY2 (ripply transcriptional repressor 2) | SID315461978 | 0.85 | inactive |
| RIPPLY2 (ripply transcriptional repressor 2) | SID315461978 | 1.12 | inactive |
| RIPPLY2 (ripply transcriptional repressor 2) | SID315461978 | 1.52 | inactive |
| RIPPLY2 (ripply transcriptional repressor 2) | SID315461978 | 1.75 | inactive |
| E2F7 (E2F transcription factor 7) | SID315462224 | -1.14 | inactive |
| E2F7 (E2F transcription factor 7) | SID315462224 | 0.4 | inactive |
| E2F7 (E2F transcription factor 7) | SID315462224 | -0.17 | inactive |
| E2F7 (E2F transcription factor 7) | SID315462224 | -0.29 | inactive |
| MECR (mitochondrial trans-2-enoyl-CoA reductase) | SID315456471 | 0.57 | inactive |
| MECR (mitochondrial trans-2-enoyl-CoA reductase) | SID315456471 | -0.14 | inactive |
| MECR (mitochondrial trans-2-enoyl-CoA reductase) | SID315456471 | -0.26 | inactive |
| MECR (mitochondrial trans-2-enoyl-CoA reductase) | SID315456471 | 0.67 | inactive |
| CYP27A1 (cytochrome P450 family 27 subfamily A member 1) | SID315448229 | -1.92 | active |
| CYP27A1 (cytochrome P450 family 27 subfamily A member 1) | SID315448229 | -1.68 | active |
| CYP27A1 (cytochrome P450 family 27 subfamily A member 1) | SID315448229 | -1.91 | active |
| CYP27A1 (cytochrome P450 family 27 subfamily A member 1) | SID315448229 | -1.65 | active |
| FMNL3 (formin like 3) | SID315460877 | -1.4 | inactive |
| FMNL3 (formin like 3) | SID315460877 | -0.14 | inactive |
| FMNL3 (formin like 3) | SID315460877 | -0.49 | inactive |
| FMNL3 (formin like 3) | SID315460877 | -0.21 | inactive |
| OR5AU1 (olfactory receptor family 5 subfamily AU member 1) | SID315464650 | -0.25 | inactive |
| OR5AU1 (olfactory receptor family 5 subfamily AU member 1) | SID315464650 | 0.25 | inactive |
| OR5AU1 (olfactory receptor family 5 subfamily AU member 1) | SID315464650 | -0.99 | inactive |
| OR5AU1 (olfactory receptor family 5 subfamily AU member 1) | SID315464650 | 1.4 | inactive |
| OR7G2 (olfactory receptor family 7 subfamily G member 2) | SID315464663 | -0.64 | inactive |
| OR7G2 (olfactory receptor family 7 subfamily G member 2) | SID315464663 | -1.08 | inactive |
| OR7G2 (olfactory receptor family 7 subfamily G member 2) | SID315464663 | 0.05 | inactive |
| OR7G2 (olfactory receptor family 7 subfamily G member 2) | SID315464663 | -0.42 | inactive |
| ASXL2 (ASXL transcriptional regulator 2) | SID315457536 | 0.25 | inactive |
| ASXL2 (ASXL transcriptional regulator 2) | SID315457536 | 0.35 | inactive |
| ASXL2 (ASXL transcriptional regulator 2) | SID315457536 | 0.12 | inactive |
| ASXL2 (ASXL transcriptional regulator 2) | SID315457536 | 0.2 | inactive |
| U2AF1L4 (U2 small nuclear RNA auxiliary factor 1 like 4) | SID315463005 | 0.16 | inactive |
| U2AF1L4 (U2 small nuclear RNA auxiliary factor 1 like 4) | SID315463005 | 0.38 | inactive |
| U2AF1L4 (U2 small nuclear RNA auxiliary factor 1 like 4) | SID315463005 | -0.31 | inactive |
| U2AF1L4 (U2 small nuclear RNA auxiliary factor 1 like 4) | SID315463005 | 0.05 | inactive |
| MRPS11 (mitochondrial ribosomal protein S11) | SID315459055 | 0.06 | inactive |
| MRPS11 (mitochondrial ribosomal protein S11) | SID315459055 | 0.27 | inactive |
| MRPS11 (mitochondrial ribosomal protein S11) | SID315459055 | 1.24 | inactive |
| MRPS11 (mitochondrial ribosomal protein S11) | SID315459055 | 0.77 | inactive |
| RNASE4 (ribonuclease A family member 4) | SID315451142 | -0.51 | inactive |
| RNASE4 (ribonuclease A family member 4) | SID315451142 | 0.29 | inactive |
| RNASE4 (ribonuclease A family member 4) | SID315451142 | 0.01 | inactive |
| RNASE4 (ribonuclease A family member 4) | SID315451142 | 0.71 | inactive |
| ZNHIT6 (zinc finger HIT-type containing 6) | SID315457120 | 0.34 | inactive |
| ZNHIT6 (zinc finger HIT-type containing 6) | SID315457120 | 1.16 | inactive |
| ZNHIT6 (zinc finger HIT-type containing 6) | SID315457120 | 2.06 | inactive |
| ZNHIT6 (zinc finger HIT-type containing 6) | SID315457120 | 1.05 | inactive |
| BYSL (bystin like) | SID315447602 | 0.14 | inactive |
| BYSL (bystin like) | SID315447602 | -0.13 | inactive |
| BYSL (bystin like) | SID315447602 | 0.3 | inactive |
| BYSL (bystin like) | SID315447602 | 0.01 | inactive |
| MMUT (methylmalonyl-CoA mutase) | SID315450083 | -0.87 | inactive |
| MMUT (methylmalonyl-CoA mutase) | SID315450083 | 0.25 | inactive |
| MMUT (methylmalonyl-CoA mutase) | SID315450083 | -0.2 | inactive |
| MMUT (methylmalonyl-CoA mutase) | SID315450083 | -0.3 | inactive |
| MARVELD2 (MARVEL domain containing 2) | SID315462565 | 0.16 | inactive |
| MARVELD2 (MARVEL domain containing 2) | SID315462565 | 1.19 | inactive |
| MARVELD2 (MARVEL domain containing 2) | SID315462565 | -0.26 | inactive |
| MARVELD2 (MARVEL domain containing 2) | SID315462565 | 0.77 | inactive |
| FAM153CP (family with sequence similarity 153 member C, pseudogene) | SID315465146 | -0.57 | inactive |
| FAM153CP (family with sequence similarity 153 member C, pseudogene) | SID315465146 | -0.06 | inactive |
| FAM153CP (family with sequence similarity 153 member C, pseudogene) | SID315465146 | -0.87 | inactive |
| FAM153CP (family with sequence similarity 153 member C, pseudogene) | SID315465146 | -0.68 | inactive |
| MS4A3 (membrane spanning 4-domains A3) | SID315447772 | 1.16 | inactive |
| MS4A3 (membrane spanning 4-domains A3) | SID315447772 | -0.01 | inactive |
| MS4A3 (membrane spanning 4-domains A3) | SID315447772 | -0.91 | inactive |
| ALS2 (alsin Rho guanine nucleotide exchange factor ALS2) | SID315458542 | -1.73 | active |
| ALS2 (alsin Rho guanine nucleotide exchange factor ALS2) | SID315458542 | -1.56 | active |
| ALS2 (alsin Rho guanine nucleotide exchange factor ALS2) | SID315458542 | -1.77 | active |
| ALS2 (alsin Rho guanine nucleotide exchange factor ALS2) | SID315458542 | -0.99 | inactive |

Reagents above marked active (8):
| target gene | PubChem SID | TNF reporter robust z-score | call |
| --- | --- | --- | --- |
| PAPPA (pappalysin 1) | SID315450423 | 3.42 | active |
| CYP27A1 (cytochrome P450 family 27 subfamily A member 1) | SID315448229 | -1.92 | active |
| CYP27A1 (cytochrome P450 family 27 subfamily A member 1) | SID315448229 | -1.68 | active |
| CYP27A1 (cytochrome P450 family 27 subfamily A member 1) | SID315448229 | -1.91 | active |
| CYP27A1 (cytochrome P450 family 27 subfamily A member 1) | SID315448229 | -1.65 | active |
| ALS2 (alsin Rho guanine nucleotide exchange factor ALS2) | SID315458542 | -1.73 | active |
| ALS2 (alsin Rho guanine nucleotide exchange factor ALS2) | SID315458542 | -1.56 | active |
| ALS2 (alsin Rho guanine nucleotide exchange factor ALS2) | SID315458542 | -1.77 | active |

Continued.
| target gene | PubChem SID | TNF reporter robust z-score | call |
| --- | --- | --- | --- |
| ISOC1 (isochorismatase domain containing 1) | SID315456404 | 0 | inactive |
| ISOC1 (isochorismatase domain containing 1) | SID315456404 | 1.99 | inactive |
| ISOC1 (isochorismatase domain containing 1) | SID315456404 | 0.05 | inactive |
| ISOC1 (isochorismatase domain containing 1) | SID315456404 | 2.6 | inactive |
| IGFBP3 (insulin like growth factor binding protein 3) | SID315449436 | -1.53 | active |
| IGFBP3 (insulin like growth factor binding protein 3) | SID315449436 | -1.02 | inactive |
| IGFBP3 (insulin like growth factor binding protein 3) | SID315449436 | -0.69 | inactive |
| IGFBP3 (insulin like growth factor binding protein 3) | SID315449436 | -1.7 | active |
| WFDC5 (WAP four-disulfide core domain 5) | SID315462427 | -0.28 | inactive |
| WFDC5 (WAP four-disulfide core domain 5) | SID315462427 | 0.03 | inactive |
| WFDC5 (WAP four-disulfide core domain 5) | SID315462427 | -0.21 | inactive |
| WFDC5 (WAP four-disulfide core domain 5) | SID315462427 | -1.04 | inactive |
| SLAMF8 (SLAM family member 8) | SID315458121 | – | inactive |
| SLAMF8 (SLAM family member 8) | SID315458121 | 0.63 | inactive |
| SLAMF8 (SLAM family member 8) | SID315458121 | 0.26 | inactive |
| SLAMF8 (SLAM family member 8) | SID315458121 | 1.07 | inactive |
| LRP2 (LDL receptor related protein 2) | SID315449802 | -0.42 | inactive |
| LRP2 (LDL receptor related protein 2) | SID315449802 | -0.63 | inactive |
| LRP2 (LDL receptor related protein 2) | SID315449802 | 0.23 | inactive |
| LRP2 (LDL receptor related protein 2) | SID315449802 | -0.16 | inactive |
| ARMC7 (armadillo repeat containing 7) | SID315459344 | -0.3 | inactive |
| ARMC7 (armadillo repeat containing 7) | SID315459344 | 0.93 | inactive |
| ARMC7 (armadillo repeat containing 7) | SID315459344 | 1.15 | inactive |
| ARMC7 (armadillo repeat containing 7) | SID315459344 | 1.61 | inactive |
| GABARAPL2 (GABA type A receptor associated protein like 2) | SID315454777 | -1.16 | inactive |
| GABARAPL2 (GABA type A receptor associated protein like 2) | SID315454777 | -1.39 | inactive |
| GABARAPL2 (GABA type A receptor associated protein like 2) | SID315454777 | -1.2 | inactive |
| GABARAPL2 (GABA type A receptor associated protein like 2) | SID315454777 | -1.05 | inactive |
| SLC22A3 | SID315451514 | 0.65 | inactive |
| SLC22A3 | SID315451514 | 1.25 | inactive |
| SLC22A3 | SID315451514 | 1.93 | inactive |
| SLC22A3 | SID315451514 | 1.4 | inactive |
| DAPL1 (death associated protein like 1) | SID315460987 | 1.54 | inactive |
| DAPL1 (death associated protein like 1) | SID315460987 | 3.56 | active |
| DAPL1 (death associated protein like 1) | SID315460987 | 3.52 | active |
| DAPL1 (death associated protein like 1) | SID315460987 | 3.3 | active |
| PDE4C (phosphodiesterase 4C) | SID315450476 | -1.61 | active |
| PDE4C (phosphodiesterase 4C) | SID315450476 | -1.12 | inactive |
| PDE4C (phosphodiesterase 4C) | SID315450476 | -1.04 | inactive |
| PDE4C (phosphodiesterase 4C) | SID315450476 | -0.36 | inactive |
| POTED (POTE ankyrin domain family member D) | SID315463937 | -0.95 | inactive |
| POTED (POTE ankyrin domain family member D) | SID315463937 | -0.02 | inactive |
| POTED (POTE ankyrin domain family member D) | SID315463937 | -0.41 | inactive |
| POTED (POTE ankyrin domain family member D) | SID315463937 | -0.2 | inactive |
| CLK3 (CDC like kinase 3) | SID315447969 | 0.3 | inactive |
| CLK3 (CDC like kinase 3) | SID315447969 | 0.42 | inactive |
| CLK3 (CDC like kinase 3) | SID315447969 | -0.83 | inactive |
| CLK3 (CDC like kinase 3) | SID315447969 | 1.82 | inactive |
